64 molecules from PubChem BioAssay AID493014 (National Center for Advancing Translational Sciences (NCATS), 2011) can be followed below.

Some of the results follow. Shown are side measurements of this screen, not its main read-out; they come without a call. Most of these compounds were active or inconclusive in the main read-out, so they are no random draw. Potencies come from curve fits of mixed quality, noted in brackets.

The nature of the assay: qHTS Assay to Find Inhibitors of Chronic Active B-Cell Receptor Signaling. The settings on record: ABC-DLBCL IkBa-CBG/CBR reporter, luminescence ratio (green luciferase fused to IkBa over red control in TMD8 lymphoma cells), 4 h. Summed up:
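TMD8 ABC-DLBCL cells carrying doxycycline-inducible green luciferase fused to IkappaBalpha plus unfused red luciferase were exposed to compounds (up to 46 uM) for 4 hrs at 37C. Activity came from the overlap-corrected green/red luminescence ratio.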

Setting [1] is: measured here: CBR red luminescence, cell number.
Where [2] appears, read: measured here: IkBa-CBG green luminescence.

As for `COCc1cc(/C=N\NC(=O)Cc2ccc(Cl)cc2)ccc1OC`, the AC50 under setting [1] is 2.59 µM [rising, full curve].
Consider `CCn1nc(NC(=O)c2ccncc2)c2cc3ccccc3nc21`, for which the AC50 is 18.4 µM [falling, single point] under setting [1] and 18.4 µM [rising, partial curve, poor fit] under setting [2].
Regarding `Cc1ccc2nc(SCC(=O)N3CCOCC3)[nH]c2c1`, the AC50 under setting [1] is 1.64 µM [rising, partial curve, poor fit].
On to `O=C(Nc1ccc(Cl)cc1)OCc1ccccn1`, for which, under setting [1], the AC50 is 14.6 µM [falling, single point].
For `CCN(CC)S(=O)(=O)c1cc(NC(=O)COC(=O)CCC(=O)c2cccs2)ccc1C`, the AC50 under setting [1] is 3.16 µM [rising, single point].
With `N#Cc1cc([N+](=O)[O-])ccc1NC(=O)COC(=O)C12CC3CC(CC(C3)C1)C2`, the AC50 under setting [1] is 3.98 µM [rising, partial curve].
`COc1ccc(OCC(=O)Nc2c3c(nn2C(C)(C)C)CSC3)cc1`: the AC50 under setting [1] was 25.1 µM [falling, single point].
Regarding `COc1ccc(Nc2nnc(-c3ccc(O)cc3)c3ccccc23)cc1C(N)=O`, the AC50 under setting [1] is 15.8 µM [falling, partial curve, poor fit].
On the same count and under the same terms, the value for `Cc1ccc(C(=O)Oc2cccc(NC(=O)c3ccco3)c2)cc1S(=O)(=O)N1CCC(C)CC1` was 20.6 µM [falling, partial curve]; that for `CNC(=S)Nc1cc2oc3ccccc3c2cc1OC` was 15.8 µM [rising, partial curve, poor fit]; that for `CCn1c(-c2csc(C(C)C)c2)n[nH]c1=S` was 20.6 µM [rising, single point].
Regarding `COc1ccc(NC(=S)N/N=C/c2ccc(F)c(F)c2)cc1`, the AC50 is 35.5 µM [rising, single point] under setting [1] and 35.5 µM [falling, partial curve, poor fit] under setting [2].
In the case of `CC1CN/C(=C\C(=O)c2ccccc2)C(=O)N1` (stereo not drawn), the AC50 under setting [1] was 2.82 µM [falling, full curve].
Regarding `Cc1onc(-c2c(F)cccc2Cl)c1C(=O)Nc1nc2ccccc2[nH]1`, the AC50 under setting [1] was 14.6 µM [falling, partial curve, poor fit].
As for `CCN(CC)C(=O)COc1ccc(-c2nnc(N3CCCCC3)c3ccccc23)cc1`, the AC50 under setting [1] is 6.51 µM [rising, single point].
Take `NNC(=O)c1cc(-c2cccs2)nc2ccccc12`: the AC50 reads like this: under setting [1], 3.16 µM [falling, single point]; under setting [2], 35.5 µM [falling, single point].
For `CC(=O)c1cccc(NC(=O)c2cc(-c3ccc(C)cc3)on2)c1`, the AC50 under setting [1] was 0.82 µM [falling, partial curve, poor fit].
For the molecule `O=C(COc1cccc2cccnc12)Nc1nccs1`, under setting [1], the AC50 was 2.51 µM [falling, full curve].
On the same count and under the same terms, the value for `O=C(CCC1CCCC1)NCCS(=O)(=O)N1CCN(c2ccccc2F)CC1` was 6.51 µM [rising, single point]; that for `COc1ccc(NC(=O)C2CCN(c3cc(C)nc(-c4ccccc4)n3)CC2)cc1` was 2.91 µM [falling, full curve].
As to `CN(C)c1ccnc(SCc2ccccc2Cl)c1C#N`, under setting [1], the AC50 was 35.5 µM [falling, single point].
As for `c1ccc(-c2nc(N3CCOCC3)c3ccccc3n2)nc1`, the AC50 under setting [1] was 29.1 µM [falling, single point].
Turning to `CCc1cc2c(=O)oc(-c3ccccc3F)nc2s1`, under setting [1], the AC50 is 7.08 µM [falling, partial curve].
On to `COc1ccc(Cl)cc1NC(=O)/C=C\C(=O)O`, for which the AC50 under setting [1] is 5.17 µM [falling, partial curve, poor fit].
The same measure, in the same setting: with `CC(=O)c1cccc(NC(=O)CSC(=O)c2ccccc2)c1` the figure was 16.4 µM [falling, partial curve, poor fit]; with `Nc1cc2sc(-c3ccc(C(=O)O)cc3)nc2cc1Cl`, 0.0366 µM [falling, full curve]; with `O=S(=O)(c1cccc(Cn2nnc(-c3ccc(F)cc3)n2)c1)N1CCOCC1`, 35.5 µM [falling, single point].
For `O=C(Nc1ccccc1)c1ccc2snnc2c1`, under setting [1], the AC50 is 35.5 µM [falling, single point].
In the case of `CCc1sc(Nc2ccc(Cl)cc2)nc1-c1cc2cccc(OC)c2oc1=O`, the AC50 under setting [1] is 15.8 µM [falling, partial curve].
The same measure, in the same setting: the value for `COC(=O)c1ccc(COc2ccc(/C=N/Nc3cccc(C(=O)O)c3)cc2)cc1` was 11.2 µM [falling, partial curve, poor fit]; that for `CC(=O)N/C(=C\c1ccccc1)C(=O)OCc1ccc(C)cc1` was 0.447 µM [rising, partial curve, poor fit]; that for `O=C(Nc1ccc(F)cc1)OCCOc1ccc(Br)cc1` was 11.2 µM [rising, partial curve, poor fit].
On the same count and under the same terms, the value for `O=c1oc2ccccc2nc1/C=C(O)/C=C\c1ccccc1` was 9.2 µM [falling, partial curve].
Same read-out and setting: the value for `COc1ccc(S(=O)(=O)n2cnc3cc(C)c(C)cc32)cc1C` was 25.9 µM [falling, single point].
For the molecule `NC(N)=Nc1nc2ccc(Br)cc2c(=O)[nH]1`, the AC50 under setting [1] was 20 µM [rising, single point].
For the molecule `CCN(CC)S(=O)(=O)c1cc(NS(=O)(=O)c2cccc(Cl)c2)ccc1C`, the AC50 by setting is: under setting [1], 13 µM [falling, partial curve, poor fit]; under setting [2], 5.17 µM [rising, partial curve, poor fit].
As to `COc1ccc(-c2nc3c(Br)c(N)c(Br)cc3o2)cc1`, under setting [1], the AC50 was 0.316 µM [rising, full curve, poor fit].
In the case of `O=S(=O)(c1ccc2c(c1)OCCO2)N1CCN(Cc2ccc3c(c2)OCO3)CC1`, the AC50 under setting [1] is 0.411 µM [falling, partial curve, poor fit].
For `COC(=O)c1cc(C)nc2c1C(=O)C(=O)C=C2N1CCOCC1`, under setting [1], the AC50 was 7.08 µM [falling, full curve, poor fit].
The same measure, in the same setting: the value for `O=C(CCC(=O)N1CCN(c2ccc(O)cc2)CC1)c1cccs1` was 6.31 µM [rising, single point]; that for `CCN(CC)CCN1C(=O)c2oc3ccccc3c(=O)c2C1c1ccccc1` (stereo not drawn) was 12.6 µM [falling, partial curve, poor fit].
Consider `CCOC(=O)CSc1nc(N)c(C#N)c(-c2cccs2)c1C#N`, for which the AC50 under setting [1] is 7.08 µM [falling, full curve, poor fit].
With `CCOC(=O)N1CCC(NC(=O)c2cc(C(=O)Nc3ccc(OC)c(OC)c3)ccc2CO)CC1`, the AC50 under setting [1] is 2.82 µM [rising, single point].
Consider `CN(C)CC(=O)c1c[nH]c2ccccc12`, for which, under setting [1], the AC50 is 7.94 µM [falling, partial curve, poor fit].
Regarding `O=C(CCc1ccccc1)NNc1ccc(F)cc1`, the concentration at half-maximal activity (AC50) under setting [1] was 0.631 µM [rising, full curve, poor fit].
Regarding `CCCn1cnc2cc(NCc3ccccn3)ccc21`, the AC50 under setting [1] was 12.6 µM [falling, partial curve].
Consider `Cc1ccc(NC(=O)CCC(=O)N/N=C/c2ccccc2O)cc1`, for which, under setting [1], the AC50 was 12.6 µM [rising, single point].
For the molecule `C=CCNc1nc2ccccc2nc1NS(=O)(=O)c1cccs1`, the AC50 under setting [1] was 32.6 µM [rising, single point].
Regarding `COCCN1CCc2c(C)nc3c(-c4ccc(OC)c(OC)c4)cnn3c21`, the AC50 under setting [1] is 14.1 µM [rising, partial curve, poor fit].
Regarding `CCCCn1c(N)c(N(CC)C(=O)c2ccc(-c3ccc(Cl)cc3)o2)c(=O)[nH]c1=O`, the AC50 under setting [1] is 0.82 µM [rising, partial curve].
Regarding `Cc1cccc(C(=O)NCCCNC(=O)c2ccccn2)c1`, the AC50 under setting [1] is 0.562 µM [rising, partial curve, poor fit].
Same read-out and setting: with `CCN(C(=O)COC(=O)c1ccc(Cl)c(S(=O)(=O)N2CCCCC2)c1)C1CCS(=O)(=O)C1` (stereo not drawn) the figure was 0.517 µM [falling, full curve].
Consider `Cc1csc(NC(=O)c2ccccc2)n1`, for which the AC50 under setting [2] is 3.98 µM [rising, partial curve, poor fit].
As for `Cc1nc2nc(SCc3c(F)cccc3Cl)nn2c(C)c1Cc1ccccc1`, the AC50 under setting [1] was 14.1 µM [rising, single point].
Regarding `CC(C)(C)c1ccc(C(=O)NCCC(=O)N2CCN(c3ncccn3)CC2)cc1`, the AC50 under setting [1] was 29.1 µM [falling, partial curve, poor fit].
In the case of `C/C(N)=C(/C#N)C(=O)COc1ccc(Cl)cc1Cl`, the AC50 under setting [1] is 11.2 µM [rising, partial curve, poor fit].
Take `COC(=O)c1cc(=O)n(-c2c(Cl)cc(C(F)(F)F)cc2Cl)[nH]1`: under setting [1], the AC50 is 20 µM [falling, single point].
The same measure, in the same setting: with `Oc1[nH]c2ccccc2c1N=Nc1nncc2ccccc12` the figure was 0.282 µM [falling, full curve, poor fit]; with `CCN(CC)C(=O)C(=O)Nc1ccc(F)c(Cl)c1`, 14.1 µM [falling, single point]; with `CCc1c(C)sc(NC(=S)N2CCN(S(C)(=O)=O)CC2)c1C(=O)OC`, 7.08 µM [rising, partial curve, poor fit].
Consider `CN1C(C(=O)Nc2ccccn2)=C(O)c2ccccc2S1(=O)=O`, for which the AC50 under setting [1] is 12.6 µM [falling, partial curve].
For the molecule `Cc1ccc(-c2c[n+](Cc3ccc(Cl)c(Cl)c3)c3n2CCC3)cc1`, the AC50 under setting [1] is 29.1 µM [falling, single point].
Consider `O=C(Nc1nc2ccccc2[nH]1)NC1CCCCC1`, for which the AC50 under setting [1] was 7.94 µM [falling, partial curve, poor fit].
`C/C=C(\C)C(=O)OC1CC(C)(C)C[C@H]2C3=CC[C@@H]4[C@@]5(C)CCC(O[C@@H]6O[C@@H](C(=O)O)[C@@H](O)C(O[C@@H]7OC[C@H](O)[C@@H](O)[C@@H]7O[C@@H]7OC(CO)C(O)[C@@H](O)[C@@H]7O)C6O[C@@H]6OC(CO)C(O)C(O)C6O)[C@@](C)(CO)[C@@H]5CC[C@]4(C)[C@]3(C)CC(O)[C@@]12CO` (stereo partly drawn): the concentration at half-maximal activity (AC50) under setting [1] was 23.1 µM [rising, single point].
